The values below come from the M2OR odorant receptor database.

Sequences of proteins named here, by UniProt entry; tags and fusion partners are left off. A change or cut given only in a name is not applied to a line headed by its entry.
UniProt Q8NGN3: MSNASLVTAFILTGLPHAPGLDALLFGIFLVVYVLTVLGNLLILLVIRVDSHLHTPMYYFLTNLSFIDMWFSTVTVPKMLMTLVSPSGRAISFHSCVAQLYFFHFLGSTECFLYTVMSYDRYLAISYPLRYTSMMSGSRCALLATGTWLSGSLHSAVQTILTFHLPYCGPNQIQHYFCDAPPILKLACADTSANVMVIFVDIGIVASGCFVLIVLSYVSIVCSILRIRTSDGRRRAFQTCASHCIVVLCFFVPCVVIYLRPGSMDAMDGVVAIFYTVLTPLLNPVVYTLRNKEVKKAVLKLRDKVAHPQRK

Structures are written as SMILES. The entries are a selection whose mix differs from that of the whole data set. Calls are pooled over several reports, among them a noisy single-well screen.

Holding throughout (conditions): stereoisomer not certain
Assay [1] has as its target T1, OR10A5 (Homo sapiens) (UniProt Q9H207).
T1 sequence (whole entry): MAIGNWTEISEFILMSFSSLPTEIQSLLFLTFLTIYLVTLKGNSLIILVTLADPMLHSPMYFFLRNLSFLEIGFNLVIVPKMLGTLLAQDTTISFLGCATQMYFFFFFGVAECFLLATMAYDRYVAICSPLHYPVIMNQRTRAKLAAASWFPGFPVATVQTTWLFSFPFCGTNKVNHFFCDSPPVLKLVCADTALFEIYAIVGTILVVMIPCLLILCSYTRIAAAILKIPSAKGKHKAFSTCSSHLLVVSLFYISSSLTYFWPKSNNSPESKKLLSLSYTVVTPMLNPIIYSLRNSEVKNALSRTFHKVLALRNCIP
The procedure, abridged:
(§1)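 Whether a receptor–molecule pair is responsive (active) rests on the original authors' judgment that its measured signal was statistically different from baseline. Pairs without that judgment are non-responsive (inactive). Sources used varied assay methods, commonly transient luciferase assays in mammalian cell lines.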

The target of assay [2] is T2, OR10A6 (Homo sapiens) (UniProt Q8NH74).
T2 sequence (whole entry): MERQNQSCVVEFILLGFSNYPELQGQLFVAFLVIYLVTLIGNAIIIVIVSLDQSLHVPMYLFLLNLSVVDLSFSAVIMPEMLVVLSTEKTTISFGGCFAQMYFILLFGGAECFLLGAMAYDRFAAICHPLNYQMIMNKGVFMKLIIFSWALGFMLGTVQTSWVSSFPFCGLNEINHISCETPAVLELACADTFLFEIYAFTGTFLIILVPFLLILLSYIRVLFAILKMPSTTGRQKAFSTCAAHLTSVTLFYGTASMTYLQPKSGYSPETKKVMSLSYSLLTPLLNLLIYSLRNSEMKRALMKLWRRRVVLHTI
The procedure, abridged: as §1

Assay [3] has as its target T3, OR10A7 (Homo sapiens) (UniProt Q8NGE5).
T3 sequence (whole entry): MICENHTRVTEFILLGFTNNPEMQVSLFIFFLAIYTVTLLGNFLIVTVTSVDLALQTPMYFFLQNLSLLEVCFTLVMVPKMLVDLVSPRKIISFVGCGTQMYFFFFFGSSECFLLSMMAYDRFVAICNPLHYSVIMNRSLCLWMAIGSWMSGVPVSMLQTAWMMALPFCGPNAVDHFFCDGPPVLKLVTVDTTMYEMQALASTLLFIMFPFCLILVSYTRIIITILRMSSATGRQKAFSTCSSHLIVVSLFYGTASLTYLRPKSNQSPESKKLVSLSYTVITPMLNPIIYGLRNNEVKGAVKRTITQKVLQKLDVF
The procedure, abridged:
as §1

The target in assay [4] is T4, OR10AG1 (Homo sapiens) (UniProt Q8NH19).
T4 sequence (whole entry): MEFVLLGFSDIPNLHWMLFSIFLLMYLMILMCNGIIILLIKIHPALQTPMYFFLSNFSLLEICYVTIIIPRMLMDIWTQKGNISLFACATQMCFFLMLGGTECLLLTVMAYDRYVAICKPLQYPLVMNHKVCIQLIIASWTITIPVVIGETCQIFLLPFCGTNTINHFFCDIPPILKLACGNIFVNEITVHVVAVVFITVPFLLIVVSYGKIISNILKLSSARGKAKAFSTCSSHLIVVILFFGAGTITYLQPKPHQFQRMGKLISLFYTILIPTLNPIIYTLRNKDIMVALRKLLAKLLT
Summed up:
as §1

Assay [5] addresses T5, OR10C1 (Homo sapiens) (UniProt Q96KK4).
T5 sequence (whole entry): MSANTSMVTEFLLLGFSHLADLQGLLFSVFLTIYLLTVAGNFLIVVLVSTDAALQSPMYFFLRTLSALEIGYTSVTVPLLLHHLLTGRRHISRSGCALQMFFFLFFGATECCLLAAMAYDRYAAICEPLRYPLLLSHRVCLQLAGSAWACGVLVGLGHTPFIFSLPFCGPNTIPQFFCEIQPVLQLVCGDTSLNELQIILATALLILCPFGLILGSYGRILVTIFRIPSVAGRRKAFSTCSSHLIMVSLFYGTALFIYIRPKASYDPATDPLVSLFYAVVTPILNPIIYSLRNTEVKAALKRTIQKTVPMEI
Summed up:
as §1

For assay [6], the target named is T6, OR10G6 (Homo sapiens) (UniProt Q8NH81).
T6 sequence (whole entry): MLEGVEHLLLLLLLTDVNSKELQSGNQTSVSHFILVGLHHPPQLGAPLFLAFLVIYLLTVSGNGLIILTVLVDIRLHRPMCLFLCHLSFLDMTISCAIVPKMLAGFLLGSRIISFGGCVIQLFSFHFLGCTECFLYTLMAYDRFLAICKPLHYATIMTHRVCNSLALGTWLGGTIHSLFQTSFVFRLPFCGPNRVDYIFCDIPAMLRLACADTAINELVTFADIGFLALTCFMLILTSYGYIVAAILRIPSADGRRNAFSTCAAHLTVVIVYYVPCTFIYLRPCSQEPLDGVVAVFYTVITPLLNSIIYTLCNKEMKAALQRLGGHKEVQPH
Summed up:
as §1

The target in assay [7] is T7, OR10G7 (Homo sapiens) (UniProt Q8NGN6).
T7 sequence (whole entry): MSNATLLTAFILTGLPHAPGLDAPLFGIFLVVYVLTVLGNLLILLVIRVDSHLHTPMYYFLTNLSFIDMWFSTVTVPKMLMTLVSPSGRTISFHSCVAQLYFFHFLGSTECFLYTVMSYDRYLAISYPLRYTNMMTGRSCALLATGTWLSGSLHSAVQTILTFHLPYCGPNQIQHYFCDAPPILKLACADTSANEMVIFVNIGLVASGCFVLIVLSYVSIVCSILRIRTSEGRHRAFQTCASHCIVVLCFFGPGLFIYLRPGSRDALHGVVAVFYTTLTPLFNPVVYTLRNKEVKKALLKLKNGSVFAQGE
Summed up:
as §1

Assay [8] concerns the target T8, OR10G3 (Homo sapiens) (UniProt Q8NGC4).
T8 sequence (whole entry): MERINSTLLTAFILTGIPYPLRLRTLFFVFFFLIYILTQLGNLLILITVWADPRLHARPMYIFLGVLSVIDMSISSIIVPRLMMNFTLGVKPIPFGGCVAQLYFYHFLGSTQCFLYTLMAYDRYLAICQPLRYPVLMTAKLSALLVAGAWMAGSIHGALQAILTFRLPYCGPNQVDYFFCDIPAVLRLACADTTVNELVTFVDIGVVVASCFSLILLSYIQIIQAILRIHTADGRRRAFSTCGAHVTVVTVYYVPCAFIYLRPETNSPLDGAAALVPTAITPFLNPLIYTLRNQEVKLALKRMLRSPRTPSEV
Summed up: as §1

Assay [9] deals with OR10G4 (Homo sapiens) (UniProt Q8NGN3). The procedure, abridged:
as §1
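Further: active if original authors judged signal statistically different from baseline.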

As for `CCCCCCCC=CC=O`, the “odorant receptor agonist call” value in assay [1], in assay [2], in [3], in assay [4], in assay [5] and in assay [6] was “inactive” each time. For the same compound, the “odorant receptor agonist call” value in assay [7] is “active”.
`CC=Cc1ccc(O)c(OC)c1`: the “odorant receptor agonist call” value in assay [1], in [2] and in assay [7] was “active” each time. In addition, the “odorant receptor agonist call” value in [3], in assay [4], in assay [5] and in [6] was “inactive” throughout.
Consider `CCCCCCCC=O`, for which the “odorant receptor agonist call” value in [1], in [2], in [3], in assay [4], in assay [5] and in assay [6] was “inactive” in each case. In addition, in assay [7], the “odorant receptor agonist call” value is “active”.
As for `c1cnccn1`, the “odorant receptor agonist call” value in assay [1], in assay [2], in assay [3], in assay [4], in assay [5] and in assay [6] was “inactive” throughout. Besides, the “odorant receptor agonist call” value in assay [7] is “inactive”.
For `C=CCc1ccc(OC(C)=O)c(OC)c1`, the “odorant receptor agonist call” value in assay [1], in assay [8] and in assay [7] was “active” in each case. Moreover, the “odorant receptor agonist call” value in assay [2], in assay [3], in assay [4], in assay [5] and in assay [6] was “inactive” each time.
Turning to `CC(C)C=O`, the “odorant receptor agonist call” value in assay [1], in assay [2], in [3], in assay [4], in assay [5] and in assay [6] was “inactive” in each case. The “odorant receptor agonist call” value in assay [7] is “active”.
As to `CCCCCOC(C)=O`, the “odorant receptor agonist call” value in assay [1] and in assay [6] was “active” each time. Also, the “odorant receptor agonist call” value in [2], in assay [3], in assay [4], in assay [5], in assay [8] and in assay [7] was “inactive” each time.
As to `CCCCCCCOC(C)=O`, the “odorant receptor agonist call” value in assay [1], in [2], in [3], in assay [4], in assay [5] and in assay [6] was “inactive” each time. For the same compound, the “odorant receptor agonist call” value in [7] is “active”.
For `CC(=O)OCC=C(C)CCC=C(C)C`, the “odorant receptor agonist call” value in assay [1], in assay [3], in assay [4], in assay [5] and in assay [6] was “inactive” each time. The “odorant receptor agonist call” value in [2] and in assay [7] was “active” each time.
Take `C=CC(C)(O)CCC=C(C)C` (stereo not drawn): the “odorant receptor agonist call” value in [1], in assay [2], in [3], in [4], in assay [5] and in assay [6] was “inactive” each time. Also, the “odorant receptor agonist call” value in [7] is “active”.
`COc1cc(C=O)ccc1O`: the “odorant receptor agonist call” value in assay [1], in [2], in assay [3], in assay [4], in assay [5] and in assay [6] was “inactive” throughout. The “odorant receptor agonist call” value in assay [8], in assay [9] and in assay [7] was “active” in each case.
Take `CC1CCC(C(C)C)C(O)C1` (stereo not drawn): the “odorant receptor agonist call” value in assay [1], in assay [2], in assay [3], in assay [4], in assay [5] and in [6] was “inactive” in each case. Besides, in assay [7], the “odorant receptor agonist call” value was “inactive”.
